The source gives many values for each of these; only a part stands here.
Tested on: L. major lysate proteins
Assay: Multitargeted bead mixture chemoproteomics, single concentration competition, proteome-wide
Assay type: binding
Details: for fold change: vehicle control = 1

Compound: Nc1nc2cccc(-c3ccccc3)c2n1Cc1ccc(Cl)c(Cl)c1 [compound 3]
- fold change (LINJ.11.0960 40S RIBOSOMAL PROTEIN S5): 0.95
- fold change (LINJ.11.1180 40S RIBOSOMAL PROTEIN S15A, PUTATIVE): 1.21
- fold change (LINJ.15.1170 HY[…], CONSERVED): 1.1
- fold change (LINJ.18.0270 GLYCOGEN SYNTHASE KINASE 3): 0.77
- fold change (LINJ.21.1790 40S RIBOSOMAL PROTEIN S11, PUTATIVE): 0.94
- fold change (LINJ.22.0180 HY[…], CONSERVED): 0.82
- fold change (LINJ.25.2170 HY[…], CONSERVED): 1.07
- fold change (LINJ.28.2870 PROTEIN PHOSPHATASE 4 CATALYTIC SUBUNIT, PUTATIVE): 0.83
- fold change (LINJ.29.0020 TRA[…]-LIKE PROTEIN): 1.09
- fold change (LINJ.29.0110 HY[…], CONSERVED): 0.52
- fold change (LINJ.33.0960 40S RIBOSOMAL PROTEIN S3, PUTATIVE): 1.13
- fold change (LINJ.35.1820 HY[…], CONSERVED): 0.89
- fold change (LINJ.35.2240 RNA-BINDING PROTEIN, PUTATIVE): 0.8
- fold change (LINJ.36.1160 RIBOSOMAL PROTEIN L24, PUTATIVE): 0.76
- fold change (LINJ.36.1580 HY[…], CONSERVED,NIMA-RELATED PROTEIN KINASE, PUTATIVE): 0.84
- fold change (LMJF.01.0570 TRIC[…], PUTATIVE): 0.88
- fold change (LMJF.03.0190 U2 SPLICING AUXILIARY FACTOR, PUTATIVE): 1.01
- fold change (LMJF.03.0540 26S PROTEASE […], PUTATIVE): 0.92
- fold change (LMJF.05.0280 PROTEIN TYROSINE PHOSPHATASE, PUTATIVE): 1
- fold change (LMJF.05.1140 VACUOLAR ATPASE SUBUNIT-LIKE PROTEIN): 0.97
- fold change (LMJF.06.0370 GLUTAMINE SYNTHETASE, PUTATIVE): 0.9
- fold change (LMJF.07.1050 CATION-TR[…], PUTATIVE): 0.98
- fold change (LMJF.08.0410 HY[…], CONSERVED): 0.95
- fold change (LMJF.10.0310 PROTEIN TRANSPORT PROTEIN SEC23, PUTATIVE): 1.06
- fold change (LMJF.10.0910 SMALL GTP-BINDING PROTEIN RAB11, PUTATIVE): 0.92
- fold change (LMJF.11.0590 3-[…]-COA C[…] SUBUNIT, PUTATIVE): 0.89
- fold change (LMJF.11.1000 PYRUVATE PHOSPHATE DIKINASE, PUTATIVE): 0.91
- fold change (LMJF.11.1030 HY[…], CONSERVED): 1.02
- fold change (LMJF.13.1230 40S RIBOSOMAL PROTEIN S4, PUTATIVE): 1.21
- fold change (LMJF.14.0670 FATTY ACID ELONGASE, PUTATIVE): 0.95
- fold change (LMJF.14.1320 SERINE […] (SHMT-S)): 0.94
- fold change (LMJF.15.0040 HY[…], CONSERVED): 0.71
- fold change (LMJF.15.0970 NAD/FAD DEPENDENT DEHYDROGENASE, PUTATIVE): 0.85
- fold change (LMJF.16.0440 FUCOSE KINASE, PUTATIVE): 0.83
- fold change (LMJF.16.0550 OROTIDINE-5-PHOSPHATE DECARBOXYLASE/OROTATE PHOSPHORIBOSYLTRANSFERASE, PUTATIVE): 0.99
- fold change (LMJF.17.1290 T[…], PUTATIVE): 0.68
- fold change (LMJF.18.0700 HY[…], CONSERVED): 1.02
- fold change (LMJF.18.1090 CAMP PHOSPHO[…], PUTATIVE): 1.05
- fold change (LMJF.18.1280 HY[…], CONSERVED): 0.96
- fold change (LMJF.18.1510 P-TYPE H -ATPASE, PUTATIVE): 1.2
- fold change (LMJF.19.0200 ADP,ATP CARRIER PROTEIN 1, MIT[…], PUTATIVE): 1.11
- fold change (LMJF.19.1510 HY[…], CONSERVED): 1.51
- fold change (LMJF.20.1180 CALPAIN-LIKE CYSTEINE PEPTIDASE, PUTATIVE): 0.82
- fold change (LMJF.21.0015 HISTONE H4): 1.06
- fold change (LMJF.21.0250 HEXOKINASE, PUTATIVE): 0.97
- fold change (LMJF.21.0820 HY[…], CONSERVED): 0.89
- fold change (LMJF.21.1450 ARGININE N-METHYLTRANSFERASE, TYPE II, PUTATIVE): 1
- fold change (LMJF.21.1770 ATP SYNTHASE F1 SUBUNIT GAMMA PROTEIN, PUTATIVE): 1.07
- fold change (LMJF.21.1860 BETA TUBULIN): 1.08
- fold change (LMJF.22.0770 NADH-CYTOCHROME B5 REDUCTASE, PUTATIVE): 1.16
- fold change (LMJF.22.0990 HY[…], CONSERVED): 0.9
- fold change (LMJF.22.1630 CCR4 […], PUTATIVE): 0.65
- fold change (LMJF.23.0080 HY[…], CONSERVED): 0.83
- fold change (LMJF.23.0110 GDP-MANNOSE PYROPHOSPHORYLASE): 0.84
- fold change (LMJF.23.0210 ATP-BINDING CASSETTE PROTEIN SUBFAMILY C, MEMBER 1, PUTATIVE): 0.99
- fold change (LMJF.23.0640 HY[…], CONSERVED): 0.87
- fold change (LMJF.24.0070 HY[…], CONSERVED): 0.75
- fold change (LMJF.27.0130 HY[…], CONSERVED): 1.26
- fold change (LMJF.27.0650 HY[…], CONSERVED): 1.14
- fold change (LMJF.28.2510 ACYL-COA DEHYDROGENASE, PUTATIVE): 0.89
- fold change (LMJF.29.1500 HY[…], CONSERVED): 1.05
- fold change (LMJF.29.2200 GTP-BINDING PROTEIN, PUTATIVE): 0.94
- fold change (LMJF.29.2360 ASPARTYL AMINOPEPTIDASE, PUTATIVE): 0.83
- fold change (LMJF.30.0580 HY[…], CONSERVED): 1.05
- fold change (LMJF.30.1040 HY[…], CONSERVED): 0.76
- fold change (LMJF.30.3530 HY[…], CONSERVED): 0.83
- fold change (LMJF.30.3570 ZINC FINGER-DOMAIN PROTEIN, PUTATIVE): 1.03
- fold change (LMJF.31.1110 HY[…], CONSERVED): 0.83
- fold change (LMJF.31.2640 2-OXOGLUTARATE DEHYDROGENASE, E3 COMPONENT, […]-LIKE PROTEIN): 0.85
- fold change (LMJF.32.0450 AF467951_1 ribosomal protein S2): 1.16
- fold change (LMJF.33.3270 DELTA-12 FATTY ACID DESATURASE): 1.2
- fold change (LMJF.34.0010 HY[…], CONSERVED): 0.92
- fold change (LMJF.34.2610 ATP-DEPENDENT DNA HELICASE, PUTATIVE): 0.87
- fold change (LMJF.34.4620 HY[…], CONSERVED): 1.08
- fold change (LMJF.35.2150 HY[…], CONSERVED): 1.01
- fold change (LMJF.35.2980 CHAPERONE PROTEIN DNAJ, PUTATIVE): 0.77
- fold change (LMJF.35.4300 HY[…], CONSERVED): 0.8
- fold change (LMJF.35.4880 HY[…], CONSERVED): 1.31
- fold change (LMJF.36.0250 EIF3-I[…]-LIKE PROTEIN): 0.94
- fold change (LMJF.36.1940 INOSINE-GUANOSINE TRANSPORTER): 1.01
- fold change (protein AF312586_1 IRON […] B1 (AF312583_1 iron […] B2)): 1.08
- fold change (protein CLM00008612.1 UNNAMED PROTEIN PRODUCT): 1.12
- fold change (protein LINJ.01.0790 […] 4A, PUTATIVE): 1.15
- fold change (protein LINJ.03.0240 RIBOSOMAL PROTEIN L38, PUTATIVE): 1.18
- fold change vs vehicle control (protein LINJ.04.0630 HY[…], CONSERVED): 0.97
- fold change (protein LINJ.05.0070 DYNEIN LIGHT CHAIN, PUTATIVE): 1.04
- fold change (protein LINJ.07.0210 CYTOCHROME C1, HEME PROTEIN, MIT[…], PUTATIVE): 1.28
- fold change vs vehicle control (protein LINJ.08.1020 STRESS-INDUCED PROTEIN STI1): 1.03
- fold change (protein LINJ.16.1510 PAR[…] PROTEIN 2C): 1.03
- fold change (protein LINJ.19.0140 PROTEIN KINASE, PUTATIVE,MITOGEN-ACTIVATED PROTEIN KINASE, PUTATIVE): 1.1
- fold change (protein LINJ.23.0860 3-KETOACYL-COA THIOLASE, PUTATIVE): 1.02
- fold change (protein LINJ.24.2300 60S RIBOSOMAL PROTEIN L12, PUTATIVE): 1.07
- fold change (protein LINJ.25.1460 GTP-BINDING PROTEIN, PUTATIVE): 0.97
- fold change (protein LINJ.25.2230 SUCCINYL-COA […] SUBUNIT, PUTATIVE): 1.04
- fold change (protein LINJ.26.0590 10 KDA HEAT SHOCK PROTEIN, PUTATIVE): 0.85
- fold change (protein LINJ.26.0840 40S RIBOSOMAL PROTEIN S16, PUTATIVE): 1.16
- fold change (protein LINJ.28.1310 GLUCOSE-REGULATED PROTEIN 78, PUTATIVE): 1.05
- fold change (protein LINJ.28.1850 […]-ATP-ASE SUBUNIT 2, PUTATIVE): 1.66
- fold change (protein LINJ.28.2280 DYNEIN LIGHT CHAIN LC6, FLAGELLAR OUTER ARM, PUTATIVE): 1.04
- fold change (protein LINJ.31.0710 HY[…], CONSERVED): 1.33
- fold change (protein LINJ.32.0240 DYNEIN LIGHT CHAIN, FLAGELLAR OUTER ARM, PUTATIVE): 0.99
- fold change vs vehicle control (protein LINJ.32.2960 […]-ATP-ASE SUBUNIT, PUTATIVE): 0.98
- fold change (protein LINJ.32.3230 PROTEIN PHOSPHATASE 2A CATALYTIC SUBUNIT, PUTATIVE): 0.88
- fold change (protein LINJ.33.0350 HEAT SHOCK PROTEIN 83-1): 1.1
- fold change (protein LINJ.35.2250 kinetoplastid membrane protein 11): 0.81
- fold change (protein LINJ.35.3840 60S RIBOSOMAL PROTEIN L23, PUTATIVE): 1.22
- fold change vs vehicle control (protein LINJ.35.4200 POLY(A)-BINDING PROTEIN 2,POLY(A) BINDING PROTEIN, PUTATIVE): 1.12
- fold change (protein LMJF.01.0320 POLY(A) EXPORT PROTEIN, PUTATIVE): 0.97
- fold change (protein LMJF.01.0650 MIT[…] BETA SUBUNIT, PUTATIVE): 1.09
- fold change (protein LMJF.02.0450 VOLTAGE-DEPENDENT ANION-SELECTIVE CHANNEL, PUTATIVE): 1.14
- fold change (protein LMJF.03.0200 DELTA-1-PYRROLINE-5-CARBOXYLATE DEHYDROGENASE, PUTATIVE): 1.09
- fold change (protein LMJF.03.0980 […] 2 ALPHA SUBUNIT, PUTATIVE): 1.17
- fold change vs vehicle control (protein LMJF.04.1230 actin): 1.1
- fold change vs vehicle control (protein LMJF.07.0220 HY[…], CONSERVED): 1.01
- fold change (protein LMJF.07.0270 […] DEACETYLASE-LIKE PROTEIN): 1.11
- fold change (protein LMJF.07.0340 ATP-DEPENDENT DEAD/H RNA HELICASE, PUTATIVE): 0.95
- fold change (protein LMJF.07.0640 HY[…], CONSERVED): 0.87
- fold change (protein LMJF.07.1000 RNA BINDING PROTEIN-LIKE PROTEIN): 1.35
- fold change (protein LMJF.07.1140 PEPTIDE […] REDUCTASE-LIKE): 1.01
- fold change (protein LMJF.08.0320 MIT[…] RIBONUCLEASE, PUTATIVE): 1.06
- fold change (protein LMJF.09.0970 […]-1 GAMMA): 0.98
- fold change (protein LMJF.10.0210 NUCLEOLAR PROTEIN, PUTATIVE): 1.06
- fold change (protein LMJF.11.0220 PTERIN-4-ALPHA-CARBINOLAMINE DEHYDRATASE, PUTATIVE): 1.03
- fold change (protein LMJF.11.0350 14-3-3 PROTEIN, PUTATIVE): 0.96

From article PMC6199744, “Development of Chemical Proteomics for the Folateome and Analysis of the Kinetoplastid Folateome” (ACS Infectious Diseases, 2018)
